Data as given in publication PMC7650656.
No constants are given. Whether binding was seen depends on the method and setting. In cells and extracts the contact can be indirect. A result given as binding can be weak or reduced; the word gives no strength. For some assays here: Tags and fused reporters may be left off the sequences shown. Values belong to the binder of their own block, whether it stands above or below them.

What was measured:
[1] = molecular target: Full-length OsRLCK311-FL fused with GFP (rice (Oryza sativa)); experiment: co-IP; GFP and RFP fusions co-infiltrated in Nicotiana benthamiana leaves, lysate 2 days after infiltration, anti-GFP magnetic beads, blots with anti-GFP and anti-RFP
[2] = molecular target: OsRLCK311-ΔN fused with GFP (rice (Oryza sativa)); experiment: as above
[3] = molecular target: OsRLCK311-ΔN-Venus^N (rice (Oryza sativa)); experiment: split reporter; BiFC: Venus^N and SCFP^C fusions transiently expressed in Nicotiana benthamiana leaves, confocal microscopy two days after infiltration
[4] = molecular target: OsRLCK311FL-Venus^N (rice (Oryza sativa)); experiment: as above

binding [1]: binds | binding [2]: binds
B1: AtPIP2;1-RFP (protein, UniProt P43286 1-287)
chain: MAKDVEAVPGEGFQTRDYQDPPPAPFIDGAELKKWSFYRAVIAEFVATLLFLYITVLTVIGYKIQSDTDAGGVDCGGVGILGIAWAFGGMIFILVYCTAGISGGHINPAVTFGLFLARKVSLPRALLYIIAQCLGAICGVGFVKAFQSSYYTRYGGGANSLADGYSTGTGLAAEIIGTFVLVYTVFSATDPKRSARDSHVPVLAPLPIGFAVFMVHLATIPITGTGINPARSFGAAVIYNKSKPWDDHWIFWVGPFIGAAIAAFYHQFVLRASGSKSLGSFRSAANV

binding [3]: binds | binding [4]: binds
B2: AtPIP2;1-SCFP^C (protein, UniProt P43286 1-287)
chain: B1 chain

binding [3]: binds | binding [4]: binds
B3: OsPIP2;1-SCFP^C (protein, UniProt Q8H5N9 1-290)
chain: MGKDEVMESGGAAGEFAAKDYTDPPPAPLIDAAELGSWSLYRAVIAEFIATLLFLYITVATVIGYKHQTDASASGADAACGGVGVLGIAWAFGGMIFILVYCTAGISGGHINPAVTFGLFLARKVSLVRAILYIVAQCLGAICGVGLVKAFQSAYFNRYGGGANTLAAGYSKGTGLAAEIIGTFVLVYTVFSATDPKRNARDSHVPVLAPLPIGFAVFMVHLATIPITGTGINPARSIGAAVIFNNEKAWHNHWIFWVGPFVGAAIAAFYHQYILRAGAIKALGSFRSNA

binding [1]: binds | binding [2]: binds
B4: OsPIP2;1-RFP (protein, UniProt Q8H5N9 1-290)
chain: B3 chain
